Test results: publication PMC4358366, “Identification of ‘erasers’ for lysine crotonylated histone marks using a chemical proteomics approach” (eLife, 2014)
Results are given in words; binding and its absence hold for the method and conditions named. Some entries that bind do so weakly or less than the wild type.

Protein sequences, listed by entry. Tags and fused reporters are not part of them. Residues count along the entry.
UniProt Q96EB6, residues 193-747: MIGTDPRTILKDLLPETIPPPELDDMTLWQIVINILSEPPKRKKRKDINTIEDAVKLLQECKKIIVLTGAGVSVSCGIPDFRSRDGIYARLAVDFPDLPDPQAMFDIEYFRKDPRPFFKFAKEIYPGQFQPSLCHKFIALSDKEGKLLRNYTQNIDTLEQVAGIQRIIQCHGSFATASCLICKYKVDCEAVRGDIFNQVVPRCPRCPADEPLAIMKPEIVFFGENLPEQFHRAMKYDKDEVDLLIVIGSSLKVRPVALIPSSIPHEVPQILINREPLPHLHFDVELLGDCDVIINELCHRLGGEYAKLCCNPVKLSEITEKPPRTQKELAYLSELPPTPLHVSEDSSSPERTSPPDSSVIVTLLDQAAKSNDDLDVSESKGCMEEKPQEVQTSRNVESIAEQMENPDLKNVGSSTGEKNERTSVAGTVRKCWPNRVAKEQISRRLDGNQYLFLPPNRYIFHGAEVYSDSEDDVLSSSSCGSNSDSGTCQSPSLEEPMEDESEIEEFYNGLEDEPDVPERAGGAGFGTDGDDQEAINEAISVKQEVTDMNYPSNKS

What was measured:
[1] = biological target: T1, recombinant human Sirt2 (36–356) (human) (UniProt Q8IXJ6); experiment: ITC; 25 °C, MicroCal iTC200; 100–200 μM protein in the cell titrated with 1.5–2.5 mM peptide; fit to a single set of independent sites; both purified
T1 sequence: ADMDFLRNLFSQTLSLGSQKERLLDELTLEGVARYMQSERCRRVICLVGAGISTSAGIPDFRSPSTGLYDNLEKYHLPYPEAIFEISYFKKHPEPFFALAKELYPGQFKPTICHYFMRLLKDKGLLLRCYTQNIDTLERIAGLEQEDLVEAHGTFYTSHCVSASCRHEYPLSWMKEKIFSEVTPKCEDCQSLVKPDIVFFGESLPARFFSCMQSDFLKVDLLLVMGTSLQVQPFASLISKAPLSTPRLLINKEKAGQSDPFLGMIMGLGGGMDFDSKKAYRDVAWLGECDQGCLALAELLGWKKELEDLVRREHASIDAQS

[2] = biological target: recombinant human Sirt1 (193–747) (human) (UniProt Q96EB6); experiment: as above

binding [1]: binds weakly
binding [2]: binds weakly
Substance: H3K4Cr (1–15) peptide (from UniProt P68431 2-16)
